# Measurements published in article PMC7738899.
# The chains behind the UniProt entries cited, without tags or fusion partners.
# UniProt Q9NZI8: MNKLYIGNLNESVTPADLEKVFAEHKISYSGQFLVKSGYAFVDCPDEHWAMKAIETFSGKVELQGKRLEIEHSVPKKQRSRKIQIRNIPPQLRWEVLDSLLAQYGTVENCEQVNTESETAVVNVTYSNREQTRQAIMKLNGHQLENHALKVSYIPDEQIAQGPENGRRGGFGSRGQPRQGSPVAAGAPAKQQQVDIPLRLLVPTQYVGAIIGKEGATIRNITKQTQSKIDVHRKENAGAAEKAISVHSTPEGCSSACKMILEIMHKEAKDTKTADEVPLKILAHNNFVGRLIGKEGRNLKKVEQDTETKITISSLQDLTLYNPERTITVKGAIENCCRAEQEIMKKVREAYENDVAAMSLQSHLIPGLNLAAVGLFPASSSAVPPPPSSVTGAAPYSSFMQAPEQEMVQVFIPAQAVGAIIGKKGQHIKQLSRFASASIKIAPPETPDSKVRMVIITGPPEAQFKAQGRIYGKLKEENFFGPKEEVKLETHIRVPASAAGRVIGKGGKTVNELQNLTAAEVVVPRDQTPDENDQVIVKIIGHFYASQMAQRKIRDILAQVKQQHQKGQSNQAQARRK
# UniProt P11940: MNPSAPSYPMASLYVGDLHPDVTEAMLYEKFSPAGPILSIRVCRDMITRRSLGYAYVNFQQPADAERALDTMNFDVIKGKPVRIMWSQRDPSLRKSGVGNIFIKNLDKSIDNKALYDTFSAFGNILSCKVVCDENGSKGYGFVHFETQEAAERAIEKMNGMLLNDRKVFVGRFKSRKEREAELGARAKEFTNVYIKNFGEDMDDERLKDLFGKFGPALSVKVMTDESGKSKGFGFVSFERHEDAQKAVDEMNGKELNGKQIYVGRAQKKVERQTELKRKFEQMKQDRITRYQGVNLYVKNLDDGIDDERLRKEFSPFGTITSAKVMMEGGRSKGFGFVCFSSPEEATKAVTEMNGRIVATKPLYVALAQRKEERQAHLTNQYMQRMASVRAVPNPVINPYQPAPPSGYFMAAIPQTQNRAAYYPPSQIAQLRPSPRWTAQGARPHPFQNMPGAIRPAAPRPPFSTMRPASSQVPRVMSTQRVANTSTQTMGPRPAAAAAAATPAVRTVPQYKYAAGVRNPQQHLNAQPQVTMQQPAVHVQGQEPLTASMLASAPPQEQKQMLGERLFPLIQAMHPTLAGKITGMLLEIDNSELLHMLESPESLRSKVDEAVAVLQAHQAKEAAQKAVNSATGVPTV
# No constants are given. Whether binding was seen depends on the method and setting. Binding seen in cells or lysates may run through a third protein. Some results given as binding are weak or reduced against the parent protein; the word gives no strength.
# Molecular target: Insulin-like growth factor 2 mRNA-binding protein 1 (IGF2BP1), FLAG-tagged (UniProt Q9NZI8)
# Test: co-IP; AN3CA cells expressing FLAG-IGF2BP1; lysate incubated with flag antibody-magnetic bead complex at 4 °C overnight; beads washed five times with buffer containing 10 μg/mL RNAse A; eluate analysed by western blotting (and silver staining)
substance,measurement,value
polyadenylate-binding protein 1 (PABPC1) (from UniProt P11940 1-636),binding,binds
